# Source: PubChem BioAssay AID1053208 (Peter MacCallum Cancer Centre, 2014)
# Purpose: 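Genes whose silencing cuts survival of bone tumour cells only with doxorubicin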 (primary screen)
# System: mouse osteosarcoma cells, early-passage culture from an engineered mouse model of fibroblastic bone tumour
# Knock-down reagent: siRNA pool against mouse genes, 40 nM
# Timing: about 120 h (48 h before drug, then 72 h with drug)
# Conditions: doxorubicin 100 nM for 72 h, roughly 30-40% inhibitory dose
# Read-out: 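Luminescent ATP signal taken as viability with or without 100 nM doxorubicin for 72 h; mean of two wells set against non-targeting siRNA and turned into robust z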
# Scale: viability z-score with doxorubicin: higher = more viable cells under doxorubicin; viability z-score without drug: higher = more viable cells with knock-down alone
# Rule for the call: 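a pool counts as active when its viability z-score with doxorubicin is -2 or below and its z-score without drug lies between -2 and 2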
# Shown is one part, drawn at random, of about 17,000 reagents. 788 of all reagents (4.7%) were called active. 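Calls rest on z-score classes alone; an extra cut-off of viability at most 70% of control was not applied to them.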 A number with no mark means an inactive call. Further read-outs or replicates are left out here.
Target gene,combined z-score class,viability z-score with doxorubicin,viability z-score without drug
Fmo5,no change with or without drug,0.45,0.84
Sdf2l1,high cell count without drug only,1.35,2.87
Lgi3,high cell count with doxorubicin only,2.02,1.35
Eif3k,low cell count with and without drug,-7.19,-6.24
Nipal4,low cell count with and without drug,-3.48,-2.19
Dnttip2,no change with or without drug,0,-0.17
Or1j20,no change with or without drug,0.22,-0.84
A130023I24Rik,low cell count with doxorubicin only (active),-2.47,-0.51
Mro,no change with or without drug,0.34,-1.52
Grb2,no change with or without drug,0,-0.34
Cypt4,no change with or without drug,-1.8,-1.85
Prdx6b,no change with or without drug,0.22,0.51
Prc1,no change with or without drug,1.46,-0.17
Fyco1,no change with or without drug,0.34,1.01
Nploc4,no change with or without drug,-0.22,-0.51
Myo1h,no change with or without drug,0.79,0.17
Pdk1,low cell count without drug only,-1.57,-2.19
Acss1,no change with or without drug,0.45,-0.17
Cog2,high cell count with doxorubicin only,2.59,1.35
Or4c124,high cell count without drug only,1.8,2.02
Pcgf2,no change with or without drug,1.35,-0.51
Mill1,no change with or without drug,1.01,0.51
Gtf3c2,no change with or without drug,-0.45,-1.01
Pank2,high cell count with doxorubicin only,2.25,-0.67
H2-T24,no change with or without drug,-0.45,0.17
Hdac1,no change with or without drug,0.22,-0.34
Capzb,low cell count without drug only,0.45,-2.19
Mettl21a,no change with or without drug,1.46,0.51
Marco,no change with or without drug,1.12,-1.52
Sqle,no change with or without drug,-0.67,-0.17
Zcchc12,high cell count with doxorubicin only,2.47,1.18
Mucl1,no change with or without drug,1.46,0.34
B130006D01Rik,no change with or without drug,0,-0.17
Mtmr7,no change with or without drug,-0.9,-0.84
Serpinb9e,no change with or without drug,1.24,0
Acot1,no change with or without drug,0.22,0.17
Bcl2,no change with or without drug,-0.22,-0.17
Pogk,no change with or without drug,0.9,0.34
Dcaf13,no change with or without drug,-0.22,-1.18
Scpep1,no change with or without drug,0,0.17
Spata31f3,no change with or without drug,0,-0.34
Prr5l,high cell count with doxorubicin only,2.14,1.35
Tmem121b,no change with or without drug,-1.46,-1.18
Fstl1,high cell count with doxorubicin only,2.36,0.17
Bpifa5,no change with or without drug,-1.35,0.51
Spin4,no change with or without drug,-0.79,0.34
Cuta,no change with or without drug,1.91,-0.67
Tubgcp5,no change with or without drug,-1.57,-1.52
Tlr12,no change with or without drug,0.34,-1.01
Uso1,no change with or without drug,-0.45,0.17
Tmem168,no change with or without drug,0.45,0.17
Coq8b,no change with or without drug,-0.22,0.84
Ninj2,no change with or without drug,1.12,0
Sema3f,no change with or without drug,-1.91,-0.17
Zfp750,no change with or without drug,0.67,1.18
Aoc1,high cell count without drug only,0.9,2.02
Or51s1,no change with or without drug,0,-0.17
En1,no change with or without drug,0.9,1.52
Zfp46,no change with or without drug,-0.22,0.84
Atad2,no change with or without drug,-0.9,-0.84
Csrp3,no change with or without drug,1.91,-0.17
Arl4a,no change with or without drug,-0.67,0
Flt4,no change with or without drug,-0.45,0.51

Reformatted: results already given.
{"Target gene":"Bcl2","combined z-score class":"no change with or without drug","viability z-score with doxorubicin":-0.22,"viability z-score without drug":-0.17}
{"Target gene":"Pogk","combined z-score class":"no change with or without drug","viability z-score with doxorubicin":0.9,"viability z-score without drug":0.34}
{"Target gene":"Dcaf13","combined z-score class":"no change with or without drug","viability z-score with doxorubicin":-0.22,"viability z-score without drug":-1.18}
{"Target gene":"Scpep1","combined z-score class":"no change with or without drug","viability z-score with doxorubicin":0,"viability z-score without drug":0.17}
{"Target gene":"Spata31f3","combined z-score class":"no change with or without drug","viability z-score with doxorubicin":0,"viability z-score without drug":-0.34}
{"Target gene":"Prr5l","combined z-score class":"high cell count with doxorubicin only","viability z-score with doxorubicin":2.14,"viability z-score without drug":1.35}
{"Target gene":"Tmem121b","combined z-score class":"no change with or without drug","viability z-score with doxorubicin":-1.46,"viability z-score without drug":-1.18}
{"Target gene":"Fstl1","combined z-score class":"high cell count with doxorubicin only","viability z-score with doxorubicin":2.36,"viability z-score without drug":0.17}
